Construct, isoform or probe ends are uncertain for at least one entry. At least one verdict rests on a figure or table, not on a statement of the authors.
Target: human serum albumin (HSA) (Homo sapiens) (UniProt P02768)
Test: graphene oxide fluorescence quenching/recovery (aptamer released from GO by HSA)
Conditions: reduced graphene oxide, LOD 0.05 ug/mL HSA, range 0.1-600 ug/mL (not a Kd); PBS (137 mM NaCl, 2.7 mM KCl, 10 mM Na2HPO4, 1.8 mM KH2PO4, pH 7.4), 25 C, 30 min; 15 uL of 5 mg/mL GO + 15 uL of 5 uM aptamer in 200 uL; commercial protein; label: 5'-Cy5; single-stranded DNA

## ATACCAGCTTATTCAATTCCCCCGGCTTTGGTTTAGAGGTAGTTGCTCATTACTTGTACGCTCCGGATGAGATAGTAAGTGCAATCT [H8 aptamer (Cy5-labeled)]
  binding result: binds

From paper PMC7644748
